No constants are given. Whether binding was seen depends on the method and setting. Some entries that bind do so weakly or less than the wild type.
Molecular target: Zn(II)Har, recombinant Porphyromonas gingivalis Har (heme associated regulator, Fur orthologue PGN_1503) (Porphyromonas gingivalis ATCC 33277) (UniProt B2RKX7)
Experiment: SEC; both purified

B1: Zn(II)Har, recombinant Porphyromonas gingivalis Har (heme associated regulator, Fur orthologue PGN_1503) (natural protein, Porphyromonas gingivalis ATCC 33277, UniProt B2RKX7 1-166, looked up)
chain: MIVTSLEDLRSRLRAYVSENGLRHTPERYSILEVAYNLKKIFTPDDLFDLTRENGLPVSLSTVYNTLTLLERCGIVLRLPSPETKYQYLMASFAEQCPLLFCTECAQFSTYYRRNVKSILADKDLRPPRFSYRQALICLYGICDKCRKKQSALKKAADKAAPKKKK
notes: Har (Fur family transcriptional regulator), P. gingivalis ATCC 33277, gene PGN_1503 (501 bp), full length; Factor Xa site (IEGR) immediately before the start of har; Measured mass of apo-Har 19157.46 Da fits the theoretical 19157.20 Da; also called PgHar; rHar; source: E. coli BL21(DE3), purified (GSTrap, on-column Factor Xa cleavage, cation exchange, size exclusion); not shown: GST, N-terminal, …
binding: binds

From PMC4222909, “The Porphyromonas gingivalis Ferric Uptake Regulator Orthologue Binds Hemin and Regulates Hemin-Responsive Biofilm Development” (PLoS ONE, 2014)
